Where a name gives a salt, the structure may show the parent alone. This is one part of the list. This is a noisy data set.
test system: Peyronie's disease tunica albuginea primary fibroblasts; assay: cell viability (DRAQ5 nuclear stain) relative to TGF-beta1-only control; higher = more viable cells; conditions: 10 µM; TGF-beta1 10 ng/mL; 72 h

SMILES	cell viability
Cc1oncc1C(=O)Nc1ccc(C(F)(F)F)cc1 [Leflunomide]	95.4%
COc1ccc(C(Cl)=C(c2ccc(OC)cc2)c2ccc(OC)cc2)cc1 [Chlorotrianisene]	83.4%
O=C(O)c1cccnc1Nc1cccc(C(F)(F)F)c1 [Niflumic acid]	90%
CC1CC(OC(=O)C(O)c2ccccc2)CC(C)(C)C1 (stereo not given) [Cyclandelate]	81.8%
CC(CCc1ccccc1)NCC(O)c1ccc(O)c(C(N)=O)c1 (stereo not given) [Labetalol HCl]	84.5%
CCOC(=O)[C@H](CCc1ccccc1)N[C@@H](C)C(=O)N1Cc2ccccc2C[C@H]1C(=O)O [Quinapril HCl]	98.5%
Cc1cn([C@H]2O[C@@H](CO)[C@H](O)[C@H]2F)c(=O)[nH]c1=O [Clevudine]	96%
Cc1onc(-c2c(Cl)cccc2Cl)c1C(=O)N[C@@H]1C(=O)N2[C@@H]1SC(C)(C)[C@@H]2C(=O)O [Dicloxacillin Sodium]	77.4%
CN1C(C)(C)CCCC1(C)C [Pempidine]	93.4%
C[N+](C)(C)CCCCCC[N+](C)(C)C [Hexamethonium?Dibromide]	99%
O=c1ccc2ccc(OCCCCN3CCN(c4cccc5sccc45)CC3)cc2[nH]1 [Brexpiprazole]	88.3%
CN(C)/N=N/c1[nH]cnc1C(N)=O [Dacarbazine]	101%
Cc1cc2c(cc1S(N)(=O)=O)S(=O)(=O)CCC2 [Meticrane]	60.9%
CC(C)OC(=O)[C@H](C)N[P@](=O)(OC[C@H]1O[C@@H](n2ccc(=O)[nH]c2=O)[C@](C)(F)[C@@H]1O)Oc1ccccc1 [Sofosbuvir (PSI-7977, GS-7977)]	86.5%
CC1(C)S[C@@H]2[C@H](NC(=O)[C@H](NC(=O)N3CCNC3=O)c3ccccc3)C(=O)N2[C@H]1C(=O)O [Azlocillin sodium salt]	96.5%
CC(C)c1ccc2oc3nc(N)c(C(=O)O)cc3c(=O)c2c1 [Amlexanox]	89.7%
COC(=O)Nc1nc2cc(C(=O)c3ccccc3)ccc2[nH]1 [Mebendazole]	62.2%
CC(=O)Nc1ccccc1 [Acetanilide]	92.8%
CC(C)(C)C(=O)Oc1ccc(S(=O)(=O)Nc2ccccc2C(=O)NCC(=O)O)cc1 [Sivelestat sodium tetrahydrate]	93.5%
CC(C)(C)C(=O)Oc1ccc(S(=O)(=O)Nc2ccccc2C(=O)NCC(=O)O)cc1 [Sivelestat (ONO-5046)]	94.9%
CC(C(=O)O)c1ccc2c(c1)Cc1cccnc1O2 (stereo not given) [Pranoprofen]	91.3%
C[C@H]1COc2c(C3(N)CC3)c(F)cc3c(=O)c(C(=O)O)cn1c23 [Pazufloxacin mesylate]	93.6%
C[N+]1(C)[C@@H]2CC[C@H]1C[C@@H](OC(=O)C(O)c1ccccc1)C2 (stereo not given in full) [Homatropine Methylbromide]	68.8%
Cc1ccccc1-c1cc(N2CCN(C)CC2)ncc1N(C)C(=O)C(C)(C)c1cc(C(F)(F)F)cc(C(F)(F)F)c1 [Netupitant]	94.1%

Given bar-delimited: entries from further up
SMILES | cell viability
CCOC(=O)[C@H](CCc1ccccc1)N[C@@H](C)C(=O)N1Cc2ccccc2C[C@H]1C(=O)O [Quinapril HCl] | 98.5%
Cc1cn([C@H]2O[C@@H](CO)[C@H](O)[C@H]2F)c(=O)[nH]c1=O [Clevudine] | 96%
Cc1onc(-c2c(Cl)cccc2Cl)c1C(=O)N[C@@H]1C(=O)N2[C@@H]1SC(C)(C)[C@@H]2C(=O)O [Dicloxacillin Sodium] | 77.4%

Next records:

SMILES	cell viability
Cc1c(C)c2c(c(C)c1O)CCC(C)(COc1ccc(CC3SC(=O)NC3=O)cc1)O2 (stereo not given) [Troglitazone (CS-045)]	89.8%
COC(=O)C1=C(C)NC(C)=C(C(=O)OCCN2CCN(C(c3ccccc3)c3ccccc3)CC2)C1c1cccc([N+](=O)[O-])c1 (stereo not given) [Manidipine 2HCl]	85.9%
COC(=O)C1=C(C)NC(C)=C(C(=O)OCCN2CCN(C(c3ccccc3)c3ccccc3)CC2)C1c1cccc([N+](=O)[O-])c1 (stereo not given) [Manidipine]	87.3%
COC(c1ccccc1)(c1ccccc1)[C@H](Oc1nc(C)cc(C)n1)C(=O)O [Ambrisentan]	93.8%
CC(C)(C(=O)O)c1ccc(C(O)CCCN2CCC(C(O)(c3ccccc3)c3ccccc3)CC2)cc1 (stereo not given) [Fexofenadine HCl]	97.8%
CN(C)CCCN1c2ccccc2Sc2ccccc21 [Promazine hydrochloride]	84.9%
CC(=O)O[C@]1(C(C)=O)CC[C@H]2[C@@H]3C[C@H](C)C4=CC(=O)C=C[C@]4(C)[C@@]3(F)[C@@H](O)C[C@@]21C [Fluorometholone Acetate]	66.7%
O=C[C@H](O)[C@@H](O)[C@H](O)CO [Xylose]	87.7%
OC(c1ccccc1)(c1ccccc1)C12CC[N+](CCOCc3ccccc3)(CC1)CC2 [Umeclidinium bromide]	98.4%
Cc1ncc(CO)c(CO)c1O [Pyridoxine]	91.6%
Cc1ncc(CO)c(CO)c1O [Pyridoxine HCl]	81.7%
C#Cc1cccc(Nc2ncnc3cc4c(cc23)OCCOCCOCCO4)c1 [Icotinib]	83.3%
C=CC(=O)Nc1cc(Nc2nccc(-c3cn(C)c4ccccc34)n2)c(OC)cc1N(C)CCN(C)C [Osimertinib (AZD9291)]	61.9%
CCc1c(C)[nH]c2c1C(=O)C(CN1CCOCC1)CC2 (stereo not given) [Molindone hydrochloride]	93.4%
N[C@@H](CCC(=O)N[C@@H](CS)C(=O)NCC(=O)O)C(=O)O [Glutathione]	90.8%
CC1=C(C(=O)O)N2C(=O)[C@@H](NC(=O)[C@H](N)C3=CCC=CC3)[C@H]2SC1 [Cephradine monohydrate]	81%
CC1=C(C(=O)O)N2C(=O)[C@@H](NC(=O)[C@H](N)C3=CCC=CC3)[C@H]2SC1 [Cefradine]	88.1%
CC1=C(/C=C/C(C)=C/C=C/C(C)=C/C(=O)O)C(C)(C)CCC1 [Tretinoin]	78.8%
C[C@]12CC[C@H](O)CC1=CC[C@@H]1[C@@H]2CC[C@]2(C)C(n3cnc4ccccc43)=CC[C@@H]12 [Galeterone]	99.6%
CNC(=O)CN(CCN(CCN(CC(=O)[O-])CC(=O)NC)CC(=O)[O-])CC(=O)[O-].O.[Gd+3] [Gadodiamide Hydrate]	100%
CNS(=O)(=O)CCc1ccc2[nH]cc(C3CCN(C)CC3)c2c1 [Naratriptan HCl]	88%
CC(=O)Oc1ccccc1C(=O)O [Aspirin]	90%
N=C(N)NS(=O)(=O)c1ccc(N)cc1 [Sulfaguanidine]	96.8%
O=C(Nc1nc2cccc(-c3ccc(CN4CCS(=O)(=O)CC4)cc3)n2n1)C1CC1 [Filgotinib (GLPG0634)]	99.3%

SMILES	cell viability
CCCCc1nc2cc(/C=C/C(=O)NO)ccc2n1CCN(CC)CC [Pracinostat (SB939)]	40%
COc1cc2nc(N(C)CCCNC(=O)C3CCCO3)nc(N)c2cc1OC (stereo not given) [Alfuzosin HCl]	101%
CCCCCOc1ccc(-c2cc(-c3ccc(C(=O)N[C@H]4C[C@@H](O)[C@@H](O)NC(=O)[C@@H]5[C@@H](O)[C@@H](C)CN5C(=O)[C@H]([C@H](O)CC(N)=O)NC(=O)[C@H]([C@H](O)[C@@H](O)c5ccc(O)c(OS(=O)(=O)O)c5)NC(=O)[C@@H]5C[C@@H](O)CN5C(=O)[C@H]([C@@H](C)O)NC4=O)cc3)no2)cc1 [Micafungin Sodium]	93.3%
CC#CC(=O)N1CCC[C@H]1c1nc(-c2ccc(C(=O)Nc3ccccn3)cc2)c2c(N)nccn12 [Acalabrutinib (ACP-196)]	93.8%
N[C@@H](Cc1c[nH]c2ccc(O)cc12)C(=O)O [5-hydroxytryptophan (5-HTP)]	97.9%
CN1C[C@@H]2C[C@H]1CN2c1cc2c(cc1F)c(=O)c(C(=O)O)cn2C1CC1 [Danofloxacin Mesylate]	84.2%
N=C(N)Nc1ccc(C(=O)Oc2ccc3cc(C(=N)N)ccc3c2)cc1 [Nafamostat Mesylate]	96.6%
NC(=O)c1nc(F)cnc1O [Favipiravir (T-705)]	88.6%
CCCSc1nc(N[C@@H]2C[C@H]2c2ccc(F)c(F)c2)c2nnn([C@@H]3C[C@H](OCCO)[C@@H](O)[C@H]3O)c2n1 [Ticagrelor]	103%
N[C@@H]1CONC1=O [D-Cycloserine]	82.5%
O=C(O)COCCN1CCN(C(c2ccccc2)c2ccc(Cl)cc2)CC1 (stereo not given) [Cetirizine DiHCl]	96.4%
CC(=O)Oc1ccc(C(=C2CCCCC2)c2ccc(OC(C)=O)cc2)cc1 [Cyclofenil]	85.9%
CC(=O)O[C@]1(C(C)=O)CC[C@H]2[C@@H]3C=C(Cl)C4=CC(=O)[C@@H]5C[C@@H]5[C@]4(C)[C@H]3CC[C@@]21C [Cyproterone Acetate]	96.4%
CC(C)c1cc(-c2n[nH]c(=O)n2-c2ccc3c(ccn3C)c2)c(O)cc1O [Ganetespib (STA-9090)]	46.6%
Nc1ncnc2c1ncn2[C@@H]1O[C@H](CO)[C@@H](O)[C@H]1O [Adenosine]	101%
Clc1ccc(CSC(Cn2ccnc2)c2ccc(Cl)cc2Cl)cc1 (stereo not given) [Sulconazole Nitrate]	69.9%
CO[C@H]1C[C@@H]2CC[C@@H](C)[C@@](O)(O2)C(=O)C(=O)N2CCCC[C@H]2C(=O)O[C@H]([C@H](C)C[C@@H]2CC[C@@H](OCCO)[C@H](OC)C2)CC(=O)[C@H](C)/C=C(\C)[C@@H](O)[C@@H](OC)C(=O)[C@H](C)C[C@H](C)/C=C/C=C/C=C/1C [Everolimus (RAD001)]	65.4%
CN(C)CCN(Cc1ccccc1)c1ccccn1 [Tripelennamine HCl]	98%
CC1CNc2c(cccc2S(=O)(=O)N[C@@H](CCCNC(=N)N)C(=O)N2CC[C@@H](C)C[C@@H]2C(=O)O)C1 (stereo not given in full) [Argatroban Monohydrate]	82.6%
CC1CNc2c(cccc2S(=O)(=O)N[C@@H](CCCNC(=N)N)C(=O)N2CC[C@@H](C)C[C@@H]2C(=O)O)C1 (stereo not given in full) [Argatroban]	89.3%
Nc1ccn([C@@H]2O[C@H](CO)[C@@H](O)C2(F)F)c(=O)n1 [Gemcitabine HCl]	71.7%
Nc1ccn([C@@H]2O[C@H](CO)[C@@H](O)C2(F)F)c(=O)n1 [Gemcitabine]	66.7%
